The whole screen tested about 330,000 compounds, of which about 610 (0.18%) were called active. Inconclusive results, whose numbers are uncertain, are shown with a selection of clear calls. Calls follow the shape of the full dose curve. A potency beside an inconclusive call is a rough fit, not a confirmed value.
Test: qHTS of Yeast-based Assay for SARS-CoV PLP; also: nearly all actives have a fitted effect of over 55% in size; as to activity, positive = growth rescue: 0% is about no effect
Settings: S. cerevisiae expressing SARS-CoV PLpro; Potency: growth rescue; activity, positive = growth rescue: at 32.9 µM (top of the series)
Potency is read from the fitted curve at half-maximal effect.

Row | Structure (SMILES) | activity, positive = growth rescue | Potency
1 | CCOC(=O)C1(Cc2ccc(Cl)cc2)CCN(C(=O)c2sc(C)nc2C)CC1 | inactive: 0.106% | 
2 | Cc1ccc(CNC(=O)CCn2cc(-c3ccc(F)cc3)nc2-c2ccncc2)cc1 | inactive: -11.5% | 
3 | CC1(C(=O)O)CCC(C(=O)Nc2ccccc2)C1(C)C (stereo unspecified) |  | inconclusive: 4.47 µM [activator, single point]
4 | COc1cccc(OC)c1C(=O)Nc1ccc2c(c1)n(C)c(=O)n2C |  | inconclusive: 22.4 µM [activator, single point]
5 | COc1ccc(Cl)cc1-c1nc(SCC(=O)N(C)CCC#N)n[nH]1 | inactive: 0.403% | 
6 | Cc1cccc(NC(=O)c2cnc3sccn3c2=O)c1 | inactive: -1.17% | 
7 | COc1ccc(CN(CC(=O)NC2CCCC2)C(=O)c2ccc(-c3ccccc3)[nH]2)cc1 | inactive: -12.4% | 
8 | O=C(NC(=S)N(Cc1ccccc1)c1ccccn1)C1CC1 | inactive: 18.5% | 
9 | Cc1cc(C)c(NC(=O)C2c3ccccc3Oc3ccccc32)c(C)c1 |  | inconclusive: 8.91 µM [activator, single point]
10 | Cc1ccc(C)c(NC(=O)CSc2nnc(CNC(=O)c3ccco3)o2)c1 |  | inconclusive: 2.82 µM [activator, full curve]
11 | COc1ccc(N2CCN(C3CCCN(C(=O)C4=C(C)OCCO4)C3)CC2)cc1 (stereo unspecified) |  | inconclusive: 20 µM [activator, single point]
12 | Cc1cc(OCC(=O)NC(Cc2ccc(Cl)cc2)C(=O)O)c2c(C)cc(=O)oc2c1 (stereo unspecified) | inactive: 9.39% | 
13 | COC(=O)c1ccccc1OCC(=O)NC1CCCCC1 | inactive: -7.77% | 
14 | CCCCCN(C(=O)CCC(=O)OCC(=O)Nc1ccc(C)cc1F)c1c(N)n(CCCC)c(=O)[nH]c1=O |  | inconclusive: 0.708 µM [activator, full curve]
15 | Cc1ccc(-n2c(-c3cccs3)nc3ccccc3c2=O)cc1 |  | inconclusive: 0.398 µM [activator, full curve, poor fit]
16 | Cc1cccc(C(=O)OCC(=O)N2CCCC2=O)c1[N+](=O)[O-] | inactive: 1.72% | 
17 | Cn1c(N)c(S(=O)(=O)N2CCCC2)c(=O)n(C)c1=O |  | inconclusive: 3.98 µM [activator, single point]
18 | OCCC1CN(Cc2cc3ccccc3o2)CCN1Cc1ccc(F)cc1 (stereo unspecified) |  | inconclusive: 2.51 µM [activator, single point]
19 | CC(=O)OC(C(=O)NC1CCCCC1)c1ccc(C)cc1 (stereo unspecified) |  | inconclusive: 11.2 µM [activator, single point]
20 | CC1CCCCC1NC(=O)Cn1nnc(-c2ccc(Cl)cc2)n1 (stereo unspecified) |  | inconclusive: 15.8 µM [activator, single point]
21 | CC(=O)Nc1ccc2c(c1)n(C)c(=O)n2C |  | inconclusive: 3.98 µM [activator, single point]
22 | CCCCNC(=O)c1cn(C)c2ccc(S(=O)(=O)N3CC(C)CC(C)C3)cc2c1=O (stereo unspecified) | inactive: -0.0059% | 
23 | Cc1nc(Cl)sc1C(=O)Nc1ccc(C(F)(F)F)cc1 | inactive: -2.99% | 

Row | Structure (SMILES) | activity, positive = growth rescue | Potency
24 | COc1ccccc1N(CC(=O)Nc1cccnc1)S(=O)(=O)c1ccccc1 |  | inconclusive: 3.55 µM [activator, partial curve]
25 | Oc1cccc(C(Nc2nccs2)c2ccc3cccnc3c2O)c1 (stereo unspecified) |  | active: 0.447 µM
26 | CC1CCCN(CCCNC(=O)c2ccc3c(c2)N(Cc2ccc(F)cc2)C(=O)c2ccccc2S3=O)C1 (stereo unspecified) |  | inconclusive: 4.47 µM [activator, partial curve]
27 | COc1ccc(Cc2nnc(N/N=C/c3ccccc3O)[nH]c2=O)cc1OC |  | inconclusive: 14.1 µM [activator, partial curve]
28 | COc1ccccc1N/C(N)=N/c1nc(CSc2nc3ccccc3s2)cc(=O)[nH]1 |  | inconclusive: 12.6 µM [activator, partial curve]
29 | CC(C(=O)N1CCc2ccccc21)N1CCN(c2ccccn2)CC1 (stereo unspecified) |  | inconclusive: 20 µM [activator, single point]
30 | Cc1cc(C)c2nc(NC(=O)c3ccc(OCC4CCCO4)cc3)sc2c1 (stereo unspecified) | inactive: -3.28% | 
31 | CNC[C@@H]1Oc2ccc(NC(=O)Nc3c(C)noc3C)cc2CC(=O)N([C@H](C)CO)C[C@H]1C |  | active: 11.2 µM
32 | COc1ccccc1/C=C/c1onc(C)c1S(=O)(=O)N1CCC(C(=O)NC(C)C)CC1 |  | inconclusive: 0.355 µM [activator, partial curve, poor fit]
33 | CC(=O)c1cccc(Nc2nc(-c3ccccc3)nc3ccccc23)c1 | inactive: 1.84% | 
34 | O=C(CCCn1c(=O)c2sccc2n(CC(=O)NCc2ccco2)c1=O)NCc1ccco1 |  | inconclusive: 2.51 µM [activator, partial curve]
35 | CC/C(=N\NC(=S)Nc1cc(C)ccc1C)c1ccc(OC(F)F)cc1 |  | inconclusive: 7.94 µM [activator, partial curve]
36 | O=C(CCCN1C(=O)[C@H]2CC=CC[C@H]2C1=O)NCc1nc(-c2ccc(Cl)cc2)no1 |  | inconclusive: 3.16 µM [activator, single point]
37 | COc1ccccc1CN1CC(C(=O)NCc2cccc(Cl)c2)CCC1=O (stereo unspecified) |  | inconclusive: 14.1 µM [activator, single point]
38 | Oc1ccccc1C1CC(c2cccs2)=NC(c2cccc(Br)c2)N1 (stereo unspecified) | inactive: -21% | 
39 | Cc1ccc(S(=O)(=O)c2nc(-c3ccc(F)cc3)oc2SCC(=O)NCC2CCCO2)cc1 (stereo unspecified) |  | inconclusive: 20 µM [activator, single point]
40 | O=[N+]([O-])c1ccc(O)c(/C=N/NC2=NS(=O)(=O)c3ccccc32)c1 |  | inconclusive: 5.01 µM [activator, partial curve]
41 | O=C(O)c1ccc2c(c1)C(=O)N(CCC1=CCCCC1)C2=O |  | inconclusive: 3.55 µM [activator, single point]
42 | CCCn1c(NC(=S)Nc2ccccc2)nc2ccccc21 |  | inconclusive: 3.98 µM [activator, single point]
43 | COc1cc(/C=N/Nc2nn3cnnc3c3ccccc23)cc(OC)c1OC |  | inconclusive: 3.98 µM [activator, single point]
44 | N#C/C(=C/c1ccncc1)c1nc2ccccc2s1 | inactive: -0.747% | 
45 | CC1(C)Cc2c(sc3nc(-c4cccs4)n(N)c(=O)c23)CO1 | inactive: 7.17% | 
46 | CCOc1ccc(Nc2oc(-c3cccc(Cl)c3)nc2C#N)cc1 |  | inconclusive: 20 µM [activator, single point]

No new results follow: an excerpt of the list.
Row | Structure (SMILES) | activity, positive = growth rescue | Potency
15 | Cc1ccc(-n2c(-c3cccs3)nc3ccccc3c2=O)cc1 |  | inconclusive: 0.398 µM [activator, full curve, poor fit]
16 | Cc1cccc(C(=O)OCC(=O)N2CCCC2=O)c1[N+](=O)[O-] | inactive: 1.72% | 

Reference: PubChem BioAssay AID485353 (National Center for Advancing Translational Sciences (NCATS), 2010)
